For the data set, the system named is mv4Int(369aa). The data set can be described thus: EMSA.
The mark [1] stands for this setting: no effective stabilisation of labelled COC' (N1) binding.
[2] abbreviates: stabilises binding to labelled COC' (N1).
The mark [3] stands for this setting: no stabilised C3 with labelled COC' (N1).

For at least one entry, the source does not settle the construct or the ends of the probe. No signal at the amounts used counts as a negative. At least one verdict was read from the data and is not stated in words by the source. A weaker result is weaker than the reference pair of the same experiment.

Consider “CACGTCGTGATCAACTAGATTCGACCGAGCGGACCACGTC (double strand) [P1 only]”, for which the binding result under setting [1] is “no binding”.
As to “CACGTCGTGATCAACTAGATTTTTAACTAGAAACCACGTC (double strand) [P1P2 11-bp sites]”, the binding result under setting [2] was “binds”.
Regarding “CACGTCGTGCCGAACTAGGGTCCGAACTAGGGACCACGTC (double strand) [P1P2 6-bp sites]”, under setting [3], the binding result was “no binding”.
On to “CACGTCGTGCGACCGAGCGGTGCGGCACGCTGACCACGTC (double strand) [No P site]”, for which the binding result under setting [1] is recorded as “no binding”.
The same measure, in the same setting: the result for “CACGTCGTGCGACCGAGCGGTTTTAACTAGAAACCACGTC (double strand) [P2 only]” reads “no binding”.
With “CACGTCGTGCTCAACTAGAGTCTTAACTAGAGACCACGTC (double strand) [P1P2 9-bp sites]”, under setting [3], the binding result was “no binding”.
With “CACGTCGTTTTTAACTAGAAAATAACTAGAATTCCACGTC (double strand) [P'1P'2 40 bp, Cy3]”, the binding result is “binds” (with unlabelled COC' DNA) and “binds more weakly” (without COC', no stable binding).
For the sequence “CACGTCGTTTTTAACTAGAAAATAACTAGAATTCCACGTC (double strand) [P'1P'2 40 bp]”, for the setting “with labelled COC' (N1), C2*/C3* mobility changed”, the binding result is “binds”.
With “GCCGACCGAGCGGAATAACTAGAAAGAGCTAGTTAATAGA (double strand) [P'2P'3 (P'1 replaced)]”, under setting [1], the binding result was “no binding”.
As to “GCCGACCGAGCGGAATAACTAGAAAGGCGGCACGCTGTCG (double strand) [P'2 only]”, under setting [1], the binding result is recorded as “no binding”.
For the sequence “GCCGACCGAGCGGGCGGCACGCTGAGAGCTAGTTAATAGA (double strand) [P'3 only]”, the binding result under setting [1] was “no binding”.
Turning to “GGTATTGGAAAGAACCTGTACTCTCCTTGCGTAAC (double strand) [COC' WT core-attP 35 bp]”, the binding result by setting is: (no arm-site DNA, faint bands and smear, 25 pmol mv4Int) “binds more weakly”; (with unlabelled P'1P'2 (N6 or N7), C1, C2, C3) “binds”.
For “GGTATTGTTCAAATCCTGTACTCTCCTTGCGTAAC (double strand) [BOB' WT attB 35 bp]”, the binding result (with unlabelled P'1P'2, same efficiency as core-attP) is on record as “binds”.
As for “GTTTTTAACTAGAAAATAACTAGAATTC (double strand) [P'1P'2 28 bp]”, where the note is “stabilises complexes with labelled COC' (N1)”, the binding result is given as “binds”.
“TTTTTAACTAGAAAATAACTAGAAAGAGCTAGTTAATAGA (double strand) [P'1P'2P'3]”: the binding result under setting [2] is recorded as “binds”.
For “TTTTTAACTAGAAAATAACTAGAAAGCGACCGAGCGGTCG (double strand) [P'1P'2 (P'3 replaced)]”, the binding result under setting [2] is “binds”.
“TTTTTAACTAGAACGACCGAGCGGAGAGCTAGTTAATAGA (double strand) [P'1P'3 (P'2 replaced)]”: the binding result under setting [1] is reported as “no binding”.
As for “TTTTTAACTAGAACGACCGAGCGGAGGCGGCACGCTGTCG (double strand) [P'1 only]”, the binding result under setting [1] is “no binding”.

The values are drawn from publication doi:10.1101/2023.11.06.565760.
